Test results published in PMC5128727, “Metalloprotease SPRTN/DVC1 Orchestrates Replication-Coupled DNA-Protein Crosslink Repair”.
Changes are numbered by the printed parent chain. pKd: −log10 of the molar value. The exact form of at least one protein or probe is not confirmed. For some assays here: A weaker result is weaker than the reference pair of the same experiment. Tags and fusion partners may be left off the protein sequences shown. For some assays here: At least one verdict was read from the data and is not stated in words by the source.

Assays:
Experiment in all cases: fluorescence polarization
SPRTN Y117C (human) = molecular target: T1, SPRTN Y117C (human) (UniProt Q9H040); settings: affinity similar to WT, Probe annealing buffer: 10 mM HEPES pH 7.5, 50 mM NaCl, recombinant protein, residues 1-489, protein details: His-ZB tag cleaved by TEV
T1 sequence (looked up): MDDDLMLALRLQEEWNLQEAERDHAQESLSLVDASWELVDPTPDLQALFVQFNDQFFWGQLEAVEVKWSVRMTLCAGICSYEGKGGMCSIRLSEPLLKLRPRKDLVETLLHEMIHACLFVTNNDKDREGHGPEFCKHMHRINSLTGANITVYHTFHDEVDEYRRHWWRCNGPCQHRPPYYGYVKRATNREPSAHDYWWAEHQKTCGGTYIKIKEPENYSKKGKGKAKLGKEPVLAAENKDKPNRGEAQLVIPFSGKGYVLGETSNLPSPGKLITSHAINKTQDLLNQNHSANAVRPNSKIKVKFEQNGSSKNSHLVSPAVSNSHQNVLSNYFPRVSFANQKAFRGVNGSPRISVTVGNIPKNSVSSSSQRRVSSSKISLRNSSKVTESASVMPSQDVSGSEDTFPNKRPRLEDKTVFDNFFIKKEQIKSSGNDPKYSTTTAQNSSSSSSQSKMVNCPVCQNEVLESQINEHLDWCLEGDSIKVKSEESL

SPRTN WT (human) = molecular target: T2, SPRTN WT (human) (UniProt Q9H040); settings: Probe annealing buffer: 10 mM HEPES pH 7.5, 50 mM NaCl, recombinant protein, residues 1-489, protein details: His-ZB tag cleaved by TEV
T2 sequence (looked up): T1 sequence (looked up) with C117Y

SPRTN E112A (human) = molecular target: T3, SPRTN E112A (human) (UniProt Q9H040); settings: affinity similar to WT, Probe annealing buffer: 10 mM HEPES pH 7.5, 50 mM NaCl, recombinant protein, residues 1-489, protein details: His-ZB tag cleaved by TEV
T3 sequence (looked up): T1 sequence (looked up) with E112A, C117Y

SPRTN 1-218 (human) = molecular target: T4, SPRTN 1-218 (human) (UniProt Q9H040); settings: low DNA affinity; Probe annealing buffer: 10 mM HEPES pH 7.5, 50 mM NaCl; recombinant protein; residues 1-218
T4 sequence (looked up): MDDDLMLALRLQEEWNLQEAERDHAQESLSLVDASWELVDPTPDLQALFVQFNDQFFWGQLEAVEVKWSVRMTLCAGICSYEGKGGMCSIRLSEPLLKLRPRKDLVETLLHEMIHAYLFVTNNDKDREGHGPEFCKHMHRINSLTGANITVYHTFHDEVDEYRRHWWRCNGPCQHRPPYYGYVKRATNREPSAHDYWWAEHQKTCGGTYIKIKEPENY

SPRTN-ΔC (human) = molecular target: T5, SPRTN-ΔC (human) (UniProt Q9H040); settings: Probe annealing buffer: 10 mM HEPES pH 7.5, 50 mM NaCl; recombinant protein; residues 1-246
T5 sequence (looked up): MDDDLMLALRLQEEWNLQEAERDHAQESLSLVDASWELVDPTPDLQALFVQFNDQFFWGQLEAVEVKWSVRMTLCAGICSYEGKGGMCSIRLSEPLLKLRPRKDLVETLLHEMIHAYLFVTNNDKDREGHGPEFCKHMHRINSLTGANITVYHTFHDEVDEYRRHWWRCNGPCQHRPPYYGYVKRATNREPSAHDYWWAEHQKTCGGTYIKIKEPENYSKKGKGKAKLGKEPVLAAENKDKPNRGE

SPRTN 1-268 (human) = molecular target: T6, SPRTN 1-268 (human) (UniProt Q9H040); settings: medium DNA affinity; Probe annealing buffer: 10 mM HEPES pH 7.5, 50 mM NaCl; recombinant protein; residues 1-268
T6 sequence (looked up): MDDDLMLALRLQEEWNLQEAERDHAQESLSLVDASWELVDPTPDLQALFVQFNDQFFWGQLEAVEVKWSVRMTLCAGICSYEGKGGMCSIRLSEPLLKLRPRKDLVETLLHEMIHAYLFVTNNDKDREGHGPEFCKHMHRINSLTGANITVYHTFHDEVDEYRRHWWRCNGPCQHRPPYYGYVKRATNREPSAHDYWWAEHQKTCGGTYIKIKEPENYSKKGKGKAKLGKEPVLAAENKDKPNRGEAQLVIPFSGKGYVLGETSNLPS

Sequence	binding result (SPRTN Y117C (human))	binding result (SPRTN WT (human); affinity similar to dsDNA)	binding result (SPRTN E112A (human))	binding result (SPRTN Y117C (human); single-stranded DNA)	binding result (SPRTN E112A (human); single-stranded DNA)	binding result (SPRTN 1-218 (human))	pKd (SPRTN WT (human))	pKd (SPRTN-ΔC (human))	binding result (SPRTN 1-268 (human))
ATCGATAGTCGGATCCTCTAGACAGCTCCATGTAGCAAGGCACTGGTAGAATTCGGCAGCGTC / GACGCTGCCGAATTCTACCAGTGCCTTGCTAGGACATCTTTGCCCACCTGCAGGTTCACCC [splayed DNA (OD1/OD3)]	binds	binds	binds						
ATCGATAGTCGGATCCTCTAGACAGCTCCATGTAGCAAGGCACTGGTAGAATTCGGCAGCGTC [ssDNA (OD1)]				binds	binds				
ATCGATAGTCGGATCCTCTAGACAGCTCCATGTAGCAAGGCACTGGTAGAATTCGGCAGCGTC (double strand) [dsDNA 63 bp (OD1/OD2)]	binds		binds			binds more weakly	7.00	6.32	binds more weakly
